The source of these data is US9708498B2, “Azo compound, ink containing azo compound, display including said ink and electronic paper” (MITSUBISHI CHEMICAL CORPORATION, priority 2012, dated 2017).

Each structure is given as a SMILES string.

The nature of this data set: Absorption spectrum of n-decane solution: solution color, absorption maximum wavelength λmax, molar extinction coefficient ε. The data set is classed as physicochemical. The conditions noted are these: solution color of ink in n-decane. The method, then: The solution color, absorption maximum wavelength (λmax), solubility C in 5° C. n-decane, molar extinction coefficient ε, and εC of each ink are summarized in Table 4.
One milligram of each of compound 1 and comparative compounds 1 and 2 was dissolved in 100 mL of the solvent, and the solution was examined for absorption spectrum with Hitachi Spectrophotometer U-4100 using a quartz cell having a measuring optical-path length of 10 mm. From the spectrum obtained, the absorption maximum wavelength λmax (nm) and the molar extinction coefficient E (L·mol^−1·cm^−1) were determined.
For `CCCCc1ccc(N=Nc2sc(N=Nc3ccc(N(CC(CC)CCCC)CC(CC)CCCC)cc3C)c(C#N)c2C)cc1` (centres unmarked) [Compound 2], the Color tone result is listed as “blue”.
For the molecule `CCCCC(CC)CN(CC(CC)CCCC)c1ccc(N=Nc2sc(N=Nc3ccc(CCC)cc3)c(C)c2C#N)c(NC(C)=O)c1` (centres unmarked) [Compound 3], the Color tone entry is reported as “blue”.
Consider `CCCCc1ccc(N=Nc2sc(N=Nc3cc(OCC)c(N(CC(CC)CCCC)CC(CC)CCCC)cc3OCC)c(C#N)c2C)cc1` (centres unmarked) [Compound 4], for which the Color tone entry was “blue”.
For the molecule `CCCCCc1ccc(N=Nc2cc(C(=O)OCCC)c(N=Nc3ccc(N(CC(CC)CCCC)CC(CC)CCCC)cc3CC)s2)cc1` (centres unmarked) [Compound 5], the Color tone result is “blue”.
On to `CCCCc1ccc(N=Nc2cc(C(=O)OCCC)c(N=Nc3ccc(N(CC(CC)CCCC)CC(CC)CCCC)cc3C)s2)cc1` (centres unmarked) [Compound 7], for which the Color tone entry is recorded as “blue”.
As for `CCCCc1ccc(N=Nc2cc(C#N)c(N=Nc3sc(N(CC(CC)CCCC)CC(CC)CCCC)nc3C(C)(C)C)s2)cc1` (centres unmarked) [Compound 10], the Color tone result was “blue”.
As to `CCCCc1ccc(N=Nc2cc(C#N)c(N=Nc3sc(N(CC(CC)CCCC)CC(CC)CCCC)nc3C(C)(C)C)s2)c(C)c1` (centres unmarked) [Compound 11], the Color tone entry is recorded as “blue”.
With `CCCCCCSc1nnc(N=Nc2cc(OC)c(N(Cc3ccc(C(C)(C)C)cc3)Cc3ccc(C(C)(C)C)cc3)cc2NC(C)=O)s1` [compound 1, reference compound], the Color tone result is reported as “red”.
